According to publication doi:10.1101/2025.10.26.684708:
Where a chain is given by its changes, count along the chain named. Read-outs that look alike come from different tables or passages of the source. These are yes or no findings as the source states them, for the method shown. Binding seen in cells or lysates may run through a third protein. Some results given as binding are weak or reduced against the parent protein; the word gives no strength. For some of these results: Where a sequence is shown, tags or fusion partners need not be part of it. One block for each molecule: values may come before it.

Protein sequences, listed by entry. Tags and fused reporters are not part of them.
UniProt Q9R1A8: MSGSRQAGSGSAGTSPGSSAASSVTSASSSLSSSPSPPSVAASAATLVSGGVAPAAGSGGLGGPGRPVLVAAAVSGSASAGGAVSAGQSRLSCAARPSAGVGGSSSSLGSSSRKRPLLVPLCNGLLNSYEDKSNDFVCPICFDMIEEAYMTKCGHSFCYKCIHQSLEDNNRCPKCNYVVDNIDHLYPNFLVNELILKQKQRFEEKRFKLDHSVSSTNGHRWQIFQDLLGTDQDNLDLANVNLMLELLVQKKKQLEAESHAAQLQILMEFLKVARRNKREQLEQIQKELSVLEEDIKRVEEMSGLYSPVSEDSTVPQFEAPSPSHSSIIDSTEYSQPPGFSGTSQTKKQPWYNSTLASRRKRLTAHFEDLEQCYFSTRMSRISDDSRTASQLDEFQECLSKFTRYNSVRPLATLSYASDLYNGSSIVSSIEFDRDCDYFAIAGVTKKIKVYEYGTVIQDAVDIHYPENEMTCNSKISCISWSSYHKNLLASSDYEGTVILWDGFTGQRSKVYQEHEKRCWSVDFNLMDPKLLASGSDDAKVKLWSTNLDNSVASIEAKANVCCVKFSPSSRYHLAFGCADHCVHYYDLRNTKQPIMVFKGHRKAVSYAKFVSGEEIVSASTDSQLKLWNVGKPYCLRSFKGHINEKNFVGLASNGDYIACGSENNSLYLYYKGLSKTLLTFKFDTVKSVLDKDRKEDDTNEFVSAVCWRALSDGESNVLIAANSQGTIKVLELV
UniProt O75592: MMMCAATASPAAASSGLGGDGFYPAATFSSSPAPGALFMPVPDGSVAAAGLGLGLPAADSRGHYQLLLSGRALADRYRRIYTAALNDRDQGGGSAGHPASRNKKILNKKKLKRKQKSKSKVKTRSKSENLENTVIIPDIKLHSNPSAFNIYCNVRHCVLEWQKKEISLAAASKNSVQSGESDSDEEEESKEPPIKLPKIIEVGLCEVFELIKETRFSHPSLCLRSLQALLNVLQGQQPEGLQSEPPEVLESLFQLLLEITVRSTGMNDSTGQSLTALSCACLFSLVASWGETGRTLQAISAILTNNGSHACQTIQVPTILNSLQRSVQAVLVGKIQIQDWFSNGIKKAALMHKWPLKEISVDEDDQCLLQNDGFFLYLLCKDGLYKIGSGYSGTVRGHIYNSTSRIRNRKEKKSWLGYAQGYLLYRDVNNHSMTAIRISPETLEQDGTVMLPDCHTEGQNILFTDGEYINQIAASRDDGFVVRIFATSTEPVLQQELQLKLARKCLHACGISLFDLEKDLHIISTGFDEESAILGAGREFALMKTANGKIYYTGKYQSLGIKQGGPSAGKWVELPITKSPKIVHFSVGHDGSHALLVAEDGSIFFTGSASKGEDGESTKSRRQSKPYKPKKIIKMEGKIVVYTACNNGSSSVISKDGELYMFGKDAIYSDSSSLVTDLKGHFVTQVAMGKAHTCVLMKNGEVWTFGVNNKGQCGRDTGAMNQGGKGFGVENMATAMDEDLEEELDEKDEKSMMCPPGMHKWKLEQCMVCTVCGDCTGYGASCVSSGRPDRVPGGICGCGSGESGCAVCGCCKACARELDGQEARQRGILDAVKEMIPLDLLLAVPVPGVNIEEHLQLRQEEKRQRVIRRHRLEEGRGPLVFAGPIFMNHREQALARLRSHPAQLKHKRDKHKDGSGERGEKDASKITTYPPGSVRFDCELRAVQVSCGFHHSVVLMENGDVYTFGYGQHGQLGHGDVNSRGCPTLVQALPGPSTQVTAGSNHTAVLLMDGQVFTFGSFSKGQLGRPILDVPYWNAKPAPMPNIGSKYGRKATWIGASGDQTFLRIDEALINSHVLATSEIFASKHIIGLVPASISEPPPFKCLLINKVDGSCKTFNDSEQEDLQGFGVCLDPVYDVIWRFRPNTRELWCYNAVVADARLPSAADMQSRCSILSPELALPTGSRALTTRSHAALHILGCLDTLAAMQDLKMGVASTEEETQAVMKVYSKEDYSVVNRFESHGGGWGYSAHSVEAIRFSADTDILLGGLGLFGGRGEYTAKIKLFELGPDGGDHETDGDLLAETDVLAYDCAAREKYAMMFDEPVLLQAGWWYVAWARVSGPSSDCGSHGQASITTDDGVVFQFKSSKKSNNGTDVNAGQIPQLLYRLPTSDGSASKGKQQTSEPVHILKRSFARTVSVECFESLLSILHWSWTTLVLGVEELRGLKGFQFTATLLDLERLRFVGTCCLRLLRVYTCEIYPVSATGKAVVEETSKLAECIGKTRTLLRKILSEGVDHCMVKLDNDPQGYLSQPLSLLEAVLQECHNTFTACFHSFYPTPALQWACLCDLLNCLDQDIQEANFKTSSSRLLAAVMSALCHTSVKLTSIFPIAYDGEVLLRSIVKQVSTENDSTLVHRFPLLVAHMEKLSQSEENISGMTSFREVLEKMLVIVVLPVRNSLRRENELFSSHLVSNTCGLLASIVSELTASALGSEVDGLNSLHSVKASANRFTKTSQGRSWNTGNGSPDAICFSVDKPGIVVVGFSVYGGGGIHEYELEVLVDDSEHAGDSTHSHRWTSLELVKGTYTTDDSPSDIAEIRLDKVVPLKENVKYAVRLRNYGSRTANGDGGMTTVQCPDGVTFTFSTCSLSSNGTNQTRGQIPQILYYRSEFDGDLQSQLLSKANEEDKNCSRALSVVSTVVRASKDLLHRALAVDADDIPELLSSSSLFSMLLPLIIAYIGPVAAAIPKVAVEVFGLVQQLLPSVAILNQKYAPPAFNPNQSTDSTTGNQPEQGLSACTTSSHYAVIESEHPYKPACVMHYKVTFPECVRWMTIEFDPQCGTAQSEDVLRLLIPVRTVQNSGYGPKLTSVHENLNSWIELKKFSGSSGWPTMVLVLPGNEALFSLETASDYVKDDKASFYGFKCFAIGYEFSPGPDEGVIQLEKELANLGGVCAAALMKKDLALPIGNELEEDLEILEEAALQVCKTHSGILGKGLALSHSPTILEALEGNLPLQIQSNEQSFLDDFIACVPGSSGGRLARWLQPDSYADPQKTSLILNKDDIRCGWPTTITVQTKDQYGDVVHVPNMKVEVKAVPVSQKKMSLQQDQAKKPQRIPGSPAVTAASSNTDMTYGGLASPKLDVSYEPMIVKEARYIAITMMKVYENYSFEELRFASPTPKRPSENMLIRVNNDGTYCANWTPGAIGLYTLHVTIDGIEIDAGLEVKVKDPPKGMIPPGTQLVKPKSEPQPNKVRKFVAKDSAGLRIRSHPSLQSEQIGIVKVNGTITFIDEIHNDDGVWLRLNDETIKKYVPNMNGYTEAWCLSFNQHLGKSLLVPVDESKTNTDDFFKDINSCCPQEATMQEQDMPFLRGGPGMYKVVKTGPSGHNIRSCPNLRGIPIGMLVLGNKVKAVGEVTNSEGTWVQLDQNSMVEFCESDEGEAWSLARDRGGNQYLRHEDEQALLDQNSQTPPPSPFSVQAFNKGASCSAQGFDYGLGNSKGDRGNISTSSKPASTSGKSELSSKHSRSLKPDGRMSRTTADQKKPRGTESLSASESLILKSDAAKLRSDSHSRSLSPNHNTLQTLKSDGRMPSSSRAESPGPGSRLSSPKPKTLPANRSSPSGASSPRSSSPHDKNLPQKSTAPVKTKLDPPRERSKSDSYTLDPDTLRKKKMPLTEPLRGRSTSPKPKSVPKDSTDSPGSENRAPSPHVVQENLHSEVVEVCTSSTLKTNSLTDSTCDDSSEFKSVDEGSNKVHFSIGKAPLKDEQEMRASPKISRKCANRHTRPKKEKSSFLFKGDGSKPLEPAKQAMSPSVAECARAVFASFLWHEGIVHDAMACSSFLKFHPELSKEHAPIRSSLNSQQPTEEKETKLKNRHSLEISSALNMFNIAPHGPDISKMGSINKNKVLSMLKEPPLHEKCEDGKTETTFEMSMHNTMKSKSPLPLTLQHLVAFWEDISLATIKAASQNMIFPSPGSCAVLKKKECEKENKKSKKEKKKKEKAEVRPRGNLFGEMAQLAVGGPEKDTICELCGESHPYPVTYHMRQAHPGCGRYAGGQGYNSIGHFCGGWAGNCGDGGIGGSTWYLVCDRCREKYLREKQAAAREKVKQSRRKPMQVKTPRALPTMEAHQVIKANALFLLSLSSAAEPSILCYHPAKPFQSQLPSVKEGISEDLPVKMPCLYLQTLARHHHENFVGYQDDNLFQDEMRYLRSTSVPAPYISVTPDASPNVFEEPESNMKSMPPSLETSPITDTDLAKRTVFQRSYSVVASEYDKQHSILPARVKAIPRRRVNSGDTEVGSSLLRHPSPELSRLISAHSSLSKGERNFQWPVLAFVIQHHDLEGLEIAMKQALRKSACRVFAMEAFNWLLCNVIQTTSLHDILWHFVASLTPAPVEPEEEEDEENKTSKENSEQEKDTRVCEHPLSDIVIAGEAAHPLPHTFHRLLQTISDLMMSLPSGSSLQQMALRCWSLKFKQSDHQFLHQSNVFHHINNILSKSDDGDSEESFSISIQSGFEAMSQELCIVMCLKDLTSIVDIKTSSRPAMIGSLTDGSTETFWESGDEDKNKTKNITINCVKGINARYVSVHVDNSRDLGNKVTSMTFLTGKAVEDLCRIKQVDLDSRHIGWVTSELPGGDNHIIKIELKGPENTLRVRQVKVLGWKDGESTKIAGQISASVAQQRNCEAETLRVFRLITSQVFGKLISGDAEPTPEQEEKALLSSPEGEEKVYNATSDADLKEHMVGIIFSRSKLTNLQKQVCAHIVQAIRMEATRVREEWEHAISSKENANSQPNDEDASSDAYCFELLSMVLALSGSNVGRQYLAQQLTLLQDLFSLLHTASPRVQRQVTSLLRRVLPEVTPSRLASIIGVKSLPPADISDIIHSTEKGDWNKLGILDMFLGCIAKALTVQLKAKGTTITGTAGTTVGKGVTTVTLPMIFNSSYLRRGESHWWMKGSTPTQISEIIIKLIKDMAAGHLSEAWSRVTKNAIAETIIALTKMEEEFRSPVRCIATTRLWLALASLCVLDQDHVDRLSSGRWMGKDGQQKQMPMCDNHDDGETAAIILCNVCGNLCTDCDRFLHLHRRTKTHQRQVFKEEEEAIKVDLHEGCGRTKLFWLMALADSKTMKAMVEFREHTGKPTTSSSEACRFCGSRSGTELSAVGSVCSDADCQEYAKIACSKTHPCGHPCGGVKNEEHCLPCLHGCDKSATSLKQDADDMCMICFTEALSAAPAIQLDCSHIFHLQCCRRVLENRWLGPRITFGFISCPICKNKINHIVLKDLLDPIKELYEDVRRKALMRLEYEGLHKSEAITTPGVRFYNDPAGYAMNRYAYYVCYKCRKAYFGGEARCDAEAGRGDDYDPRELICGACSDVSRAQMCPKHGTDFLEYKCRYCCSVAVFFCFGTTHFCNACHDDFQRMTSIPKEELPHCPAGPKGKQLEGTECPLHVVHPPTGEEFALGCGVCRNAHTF
UniProt Q9CUN6: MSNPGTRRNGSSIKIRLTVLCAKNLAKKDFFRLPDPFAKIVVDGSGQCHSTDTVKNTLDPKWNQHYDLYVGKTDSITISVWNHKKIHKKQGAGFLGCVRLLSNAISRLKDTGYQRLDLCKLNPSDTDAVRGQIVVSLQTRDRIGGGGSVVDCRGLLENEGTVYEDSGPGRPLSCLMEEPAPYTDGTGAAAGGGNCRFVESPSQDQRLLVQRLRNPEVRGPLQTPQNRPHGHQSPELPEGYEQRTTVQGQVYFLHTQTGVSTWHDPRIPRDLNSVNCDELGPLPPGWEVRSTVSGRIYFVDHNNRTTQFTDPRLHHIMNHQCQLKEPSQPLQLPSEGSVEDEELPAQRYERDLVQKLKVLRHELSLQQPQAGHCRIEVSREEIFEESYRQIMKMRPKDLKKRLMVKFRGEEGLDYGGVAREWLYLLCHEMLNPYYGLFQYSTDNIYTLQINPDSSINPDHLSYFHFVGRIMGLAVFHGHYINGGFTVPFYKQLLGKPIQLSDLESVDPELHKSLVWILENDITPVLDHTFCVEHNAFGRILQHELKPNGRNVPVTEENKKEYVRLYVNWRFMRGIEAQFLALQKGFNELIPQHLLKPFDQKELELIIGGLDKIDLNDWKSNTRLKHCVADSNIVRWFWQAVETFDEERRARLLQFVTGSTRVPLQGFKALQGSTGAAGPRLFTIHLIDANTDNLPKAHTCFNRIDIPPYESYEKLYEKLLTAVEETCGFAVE

Tests used:
[1] = target: T1, endogenous UCP1 of mouse brown adipose tissue (mouse (endogenous in BAT)) (UniProt P12242); experiment: co-IP
T1 sequence: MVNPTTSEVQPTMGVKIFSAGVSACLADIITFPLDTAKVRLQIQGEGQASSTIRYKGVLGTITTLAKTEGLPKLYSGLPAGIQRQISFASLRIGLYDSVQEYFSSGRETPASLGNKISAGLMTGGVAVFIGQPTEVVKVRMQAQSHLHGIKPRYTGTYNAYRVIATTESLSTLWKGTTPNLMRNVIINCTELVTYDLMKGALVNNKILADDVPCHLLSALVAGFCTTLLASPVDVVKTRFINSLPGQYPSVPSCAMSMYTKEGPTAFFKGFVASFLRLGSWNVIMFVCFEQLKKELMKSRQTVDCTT

[2] = target: T2, UCP1-GFP (human uncoupling protein 1 with GFP) (human) (UniProt P25874); experiment: co-IP
T2 sequence: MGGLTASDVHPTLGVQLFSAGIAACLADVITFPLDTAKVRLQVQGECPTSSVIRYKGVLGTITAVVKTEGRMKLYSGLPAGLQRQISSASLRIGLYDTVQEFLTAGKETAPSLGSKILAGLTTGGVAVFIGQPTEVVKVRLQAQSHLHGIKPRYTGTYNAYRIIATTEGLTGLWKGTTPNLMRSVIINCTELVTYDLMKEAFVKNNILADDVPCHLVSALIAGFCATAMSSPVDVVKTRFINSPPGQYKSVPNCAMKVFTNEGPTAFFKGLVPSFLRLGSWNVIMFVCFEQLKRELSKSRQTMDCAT

[3] = target: T3, TRIB2-GST (full-length mouse TRIB2 with GST) (mouse) (UniProt Q8K4K3); experiment: pull-down
T3 sequence: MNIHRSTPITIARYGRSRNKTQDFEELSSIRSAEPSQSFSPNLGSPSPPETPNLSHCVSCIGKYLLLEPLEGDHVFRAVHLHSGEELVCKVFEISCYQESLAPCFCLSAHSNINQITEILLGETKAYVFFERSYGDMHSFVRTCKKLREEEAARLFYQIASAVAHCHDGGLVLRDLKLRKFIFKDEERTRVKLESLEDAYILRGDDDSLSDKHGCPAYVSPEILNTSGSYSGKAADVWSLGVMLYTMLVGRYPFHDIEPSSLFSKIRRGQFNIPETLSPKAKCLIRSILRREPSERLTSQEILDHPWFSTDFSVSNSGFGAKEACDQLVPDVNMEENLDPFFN

[4] = target: T2, UCP1-GFP (human uncoupling protein 1 with GFP) (human); experiment: co-IP; remark: listed apart in the source
[5] = target: T1, endogenous UCP1 of mouse brown adipose tissue (mouse (endogenous in BAT)); experiment: co-IP; remark: listed apart in the source
[6] = target: T1, endogenous UCP1 of mouse brown adipose tissue (mouse (endogenous in BAT)); experiment: proximity ligation

binding [3]: binds
B1: endogenous UCP1 of mouse brown adipose tissue (protein, UniProt P12242 1-307)
chain: T1 sequence

binding [4]: binds
B2: TRIB2-His (full-length human TRIB2) (protein, UniProt Q92519 1-343)
chain: T3 sequence with E93D, L120I, G318A, F319Y, A324V, C325S

The remaining lines, values behind:

Molecule: COP1 (from UniProt Q9R1A8 1-733)
binding [1]: no binding

Molecule: MYCBP2-Myc (from UniProt O75592 1-4678)
binding [2]: binds

Molecule: Smurf1 (from UniProt Q9CUN6 1-731)
binding [1]: no binding

B3: endogenous TRIB2 of mouse brown adipose tissue (protein, UniProt Q8K4K3 1-343)
chain: T3 sequence
binding [5]: binds
binding [6]: binds
